One assay addresses T1, Flag-RNF8 (UniProt O76064).
T1 sequence: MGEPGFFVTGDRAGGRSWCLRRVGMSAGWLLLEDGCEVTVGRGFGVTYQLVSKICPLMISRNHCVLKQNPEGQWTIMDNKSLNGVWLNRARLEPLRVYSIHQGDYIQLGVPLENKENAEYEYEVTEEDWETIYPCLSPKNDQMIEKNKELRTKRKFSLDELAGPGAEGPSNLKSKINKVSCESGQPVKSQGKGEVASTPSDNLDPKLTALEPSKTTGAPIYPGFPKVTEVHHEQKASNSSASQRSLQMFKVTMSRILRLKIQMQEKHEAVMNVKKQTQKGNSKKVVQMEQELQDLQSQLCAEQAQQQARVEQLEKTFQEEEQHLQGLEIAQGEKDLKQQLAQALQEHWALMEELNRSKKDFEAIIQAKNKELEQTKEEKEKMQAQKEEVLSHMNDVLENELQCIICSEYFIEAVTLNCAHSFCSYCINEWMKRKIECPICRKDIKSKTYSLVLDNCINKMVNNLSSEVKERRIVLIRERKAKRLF
In words: co-IP; HEK293T cells transfected with the indicated plasmids, lysed 48 h later in NP-40 lysis buffer; anti-Flag magnetic beads overnight at 4 C, six washes.

The chains behind the UniProt entries cited, without tags or fusion partners.
UniProt P38398: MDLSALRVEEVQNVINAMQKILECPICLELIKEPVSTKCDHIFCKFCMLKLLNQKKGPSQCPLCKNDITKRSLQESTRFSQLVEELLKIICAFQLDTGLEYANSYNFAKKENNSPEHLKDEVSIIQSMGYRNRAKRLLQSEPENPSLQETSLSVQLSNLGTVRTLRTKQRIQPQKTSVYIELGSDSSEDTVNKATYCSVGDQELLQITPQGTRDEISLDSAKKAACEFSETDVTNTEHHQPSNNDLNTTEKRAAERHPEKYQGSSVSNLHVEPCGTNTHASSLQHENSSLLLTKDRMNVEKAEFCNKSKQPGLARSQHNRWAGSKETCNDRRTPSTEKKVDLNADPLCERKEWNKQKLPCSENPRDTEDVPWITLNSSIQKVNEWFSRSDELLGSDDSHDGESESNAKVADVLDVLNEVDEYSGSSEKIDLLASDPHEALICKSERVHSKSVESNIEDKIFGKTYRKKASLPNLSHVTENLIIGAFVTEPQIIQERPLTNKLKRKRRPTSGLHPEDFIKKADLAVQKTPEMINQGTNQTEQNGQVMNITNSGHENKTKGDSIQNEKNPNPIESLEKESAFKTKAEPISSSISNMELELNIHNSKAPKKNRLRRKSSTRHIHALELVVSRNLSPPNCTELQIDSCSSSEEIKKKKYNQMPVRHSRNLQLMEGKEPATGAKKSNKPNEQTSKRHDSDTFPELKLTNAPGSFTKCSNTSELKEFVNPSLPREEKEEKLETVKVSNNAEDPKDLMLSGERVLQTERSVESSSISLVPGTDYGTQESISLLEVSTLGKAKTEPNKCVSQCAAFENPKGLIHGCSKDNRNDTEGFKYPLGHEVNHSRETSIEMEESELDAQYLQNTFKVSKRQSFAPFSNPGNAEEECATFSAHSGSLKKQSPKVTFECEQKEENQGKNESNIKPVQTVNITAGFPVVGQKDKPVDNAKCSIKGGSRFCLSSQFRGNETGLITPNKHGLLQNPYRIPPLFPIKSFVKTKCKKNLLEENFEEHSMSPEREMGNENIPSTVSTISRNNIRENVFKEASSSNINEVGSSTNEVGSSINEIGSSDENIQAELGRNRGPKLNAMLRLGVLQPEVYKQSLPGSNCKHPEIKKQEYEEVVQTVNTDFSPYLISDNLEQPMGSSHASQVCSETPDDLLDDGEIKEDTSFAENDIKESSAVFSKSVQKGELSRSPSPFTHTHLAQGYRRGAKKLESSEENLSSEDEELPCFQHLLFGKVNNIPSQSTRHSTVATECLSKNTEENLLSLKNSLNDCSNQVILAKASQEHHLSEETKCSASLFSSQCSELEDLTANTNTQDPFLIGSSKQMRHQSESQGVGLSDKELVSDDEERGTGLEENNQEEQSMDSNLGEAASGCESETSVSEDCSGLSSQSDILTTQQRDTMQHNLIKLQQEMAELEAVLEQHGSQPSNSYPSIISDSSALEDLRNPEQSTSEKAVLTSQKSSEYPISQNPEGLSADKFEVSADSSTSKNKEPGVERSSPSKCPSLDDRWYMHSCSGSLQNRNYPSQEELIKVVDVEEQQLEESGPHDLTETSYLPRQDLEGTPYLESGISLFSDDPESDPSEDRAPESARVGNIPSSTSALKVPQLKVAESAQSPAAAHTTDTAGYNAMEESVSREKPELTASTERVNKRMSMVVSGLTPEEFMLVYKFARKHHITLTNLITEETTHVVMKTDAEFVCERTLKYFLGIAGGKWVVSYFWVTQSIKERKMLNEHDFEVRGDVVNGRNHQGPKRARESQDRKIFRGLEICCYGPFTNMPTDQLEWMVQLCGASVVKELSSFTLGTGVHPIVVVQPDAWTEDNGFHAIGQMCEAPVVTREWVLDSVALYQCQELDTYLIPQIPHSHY
UniProt P49760: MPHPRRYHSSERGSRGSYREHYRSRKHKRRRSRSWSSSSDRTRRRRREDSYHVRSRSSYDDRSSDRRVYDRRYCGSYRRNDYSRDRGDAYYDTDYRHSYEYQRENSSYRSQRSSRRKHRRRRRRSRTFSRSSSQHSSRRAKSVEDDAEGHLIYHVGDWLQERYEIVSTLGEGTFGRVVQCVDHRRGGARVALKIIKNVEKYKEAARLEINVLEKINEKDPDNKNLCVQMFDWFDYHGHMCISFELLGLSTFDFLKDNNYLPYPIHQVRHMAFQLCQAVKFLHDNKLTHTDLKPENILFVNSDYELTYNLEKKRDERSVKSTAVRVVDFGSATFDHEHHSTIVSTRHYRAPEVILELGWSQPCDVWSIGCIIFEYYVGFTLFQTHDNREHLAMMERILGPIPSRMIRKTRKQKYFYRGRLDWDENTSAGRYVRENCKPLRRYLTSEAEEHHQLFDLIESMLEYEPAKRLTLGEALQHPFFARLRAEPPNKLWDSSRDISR

Assay [1] has as its target T2, ring finger protein 8 (RNF8) (human (endogenous in A2780)) (UniProt O76064).
T2 sequence: T1 sequence
Put plainly: co-IP; endogenous proteins of A2780 cells; 2 ug antibody overnight at 4 C, protein A/G magnetic beads 6 h at 4 C, six washes with NP-40 buffer; IgG as negative control.

The target in assay [2] is breast cancer gene 1 (BRCA1) (human (endogenous in A2780)) (UniProt P38398). Put plainly: co-IP; endogenous proteins of ovarian cancer cells; IP by BRCA1 antibody, IgG as negative control; cells treated with different concentrations of cisplatin for 12 h or with 66.7 uM cisplatin for different hours; protein A/G magnetic beads, NP-40 buffer washes.

Results are given in words; binding and its absence hold for the method and conditions named. In cells and extracts the contact can be indirect. Some results given as binding are weak or reduced against the parent protein; the word gives no strength. For part of these data: Sequences can lack the tags named with a protein.

“CLK2 (in HEK293T cells, exogenous co-immunoprecipitation with Flag-RNF8) (from UniProt P49760 1-499)”: in the assay with Flag-RNF8, the binding entry is recorded as “binds”.

With “Cdc2-like kinase 2 (CLK2) (from UniProt P49760 1-499)”, the binding entry in assay [1] and in assay [2] was “binds” throughout.

These data come from paper PMC11016135.
